Measurements: PubChem BioAssay AID330 (DTP/NCI, 2004)
The list does not hold the whole screen: it gathers tests that were run many times, whatever their T/C, doses with no T/C, and many T/C values between a quarter and a half above the control. Other doses and runs of a compound stand elsewhere. T/C: endpoint of the treated group in % of that of the vehicle group. Some doses have a count of surviving animals in place of a T/C: the source files T/C as zero there, which appears to mark a toxic dose or a test without result, not a measured value. Some survivor counts are full or nearly so, which does not show that the dose was tolerated: survival well below the control is almost never listed, so the zero probably covers shortened survival too. Survivors were counted at the toxicity check, usually on the fifth day, unless a day is given; later deaths do not show. Schedules are NCI's codes, read here as Q, the interval in days (D) or hours (H), X, the number of doses. Some entries were tested several times; their values stand side by side, smallest first. Where survival is the endpoint, the PubChem record calls one and a half times the control and up active, and a quarter to a half above the control has no call in these data; cut-offs in other NCI protocols can differ.

Test system: P388 leukemia ip, CD2F1 mice, survival T/C
Test: NCI In Vivo Anticancer Drug Screen. Data for tumor model P388 Leukemia (intraperitoneal) in CD2F1 (CDF1) mice
Conditions: T/C endpoint: median survival time, higher T/C = longer survival
[1] = dose: 50.0 mg/kg/injection, schedule: Q01DX009 (ip), vehicle: saline with Tween-80
[2] = dose: 100.0 mg/kg/injection, schedule: Q01DX009 (ip), vehicle: saline with Tween-80

Compound: Cc1cc2cc(N)ccc2[se]1
- survivor count (dose: 50.0 mg/kg/injection, schedule: Q01DX009 (ip), vehicle: saline): 6 of 6

Compound: CCOC(=O)NCNC(=O)OCC
- T/C (dose: 200.0 mg/kg/injection, schedule: Q01DX009 (ip), vehicle: Klucel (hydroxypropylcellulose) (HPC)): 128 % of control

Compound: COc1cccc2c1C(=O)c1c(O)c3c(c(O)c1C2=O)C[C@@](O)(C(=O)CO)C[C@@H]3OC1CC(N2CCOCC2C#N)C(O)C(C)O1 (some centres undefined)
- survivor count (dose: 1.25 mg/kg/injection, schedule: Q04DX003 (ip), vehicle: distilled water + Tween-80): 0 of 6 on day 9
- survivor count (dose: 2.5 mg/kg/injection, schedule: Q04DX003 (ip), vehicle: distilled water + Tween-80): 0 of 6 on day 9
- survivor count (dose: 5.0 mg/kg/injection, schedule: Q04DX003 (ip), vehicle: distilled water + Tween-80): 0 of 6 on day 9
- survivor count (dose: 10.0 mg/kg/injection, schedule: Q04DX003 (ip), vehicle: distilled water + Tween-80): 0 of 6 on day 9
- survivor count (dose: 20.0 mg/kg/injection, schedule: Q04DX003 (ip), vehicle: distilled water + Tween-80): 0 of 6 on day 9
- T/C (dose: 4.69 micrograms/kg/injection, schedule: Q04DX003 (ip), vehicle: saline with Tween-80): 139 % of control
- T/C (dose: 33.0 micrograms/kg/injection, schedule: Q04DX003 (iv), vehicle: saline + alcohol): 137 % of control
- survivor count (dose: 37.5 micrograms/kg/injection, schedule: Q04DX003 (ip), vehicle: saline with Tween-80): 3 of 6
- survivor count (dose: 50.0 micrograms/kg/injection, schedule: Q04DX003 (iv), vehicle: saline + alcohol): 10 of 10
- survivor count (dose: 75.0 micrograms/kg/injection, schedule: Q04DX003 (ip), vehicle: saline with Tween-80): 1 of 6 and 2 of 6
- survivor count (dose: 75.0 micrograms/kg/injection, schedule: Q04DX003 (iv), vehicle: saline + alcohol): 10 of 10
- survivor count (dose: 150.0 micrograms/kg/injection, schedule: Q04DX003 (ip), vehicle: saline with Tween-80): 0 of 6
- T/C (dose: 150.0 micrograms/kg/injection, schedule: Q04DX003 (ip), vehicle: water): 131 % of control
- survivor count (dose: 600.0 micrograms/kg/injection, schedule: Q04DX003 (ip), vehicle: water): 5 of 6 on day 9

Compound: CN(c1ccccc1)c1c2c(oc(=O)c1Cl)-c1ccccc1SC2
- survivor count (dose: 12.5 mg/kg/injection, schedule: Q01DX009 (ip), vehicle: saline with Tween-80): 6 of 6
- survivor count [1]: 6 of 6
- survivor count [2]: 6 of 6

Compound: O=C1C=CCC12CC=CC2=O
- survivor count (dose: 50.0 mg/kg/injection, schedule: Q01DX001 (ip), vehicle: Klucel (hydroxypropylcellulose) (HPC)): 0 of 6
- survivor count (dose: 100.0 mg/kg/injection, schedule: Q01DX001 (ip), vehicle: Klucel (hydroxypropylcellulose) (HPC)): 0 of 6
- survivor count (dose: 200.0 mg/kg/injection, schedule: Q01DX001 (ip), vehicle: Klucel (hydroxypropylcellulose) (HPC)): 0 of 6

Compound: O=C(OCC1C=C(OC(=O)c2ccccc2)C(=O)C(OC(=O)c2ccccc2)O1)c1ccccc1 (centres undefined)
- survivor count [1]: 6 of 6

Compound: C/C(O)=C(/N=Nc1ccc(-c2nc3ccc(C)c(S(=O)(=O)O)c3s2)cc1)C(=O)Nc1ccccc1
- survivor count [1]: 6 of 6
- survivor count [2]: 6 of 6
- survivor count (dose: 200.0 mg/kg/injection, schedule: Q01DX009 (ip), vehicle: saline with Tween-80): 6 of 6

Compound: Clc1nnn(-c2ccccc2)n1
- survivor count (dose: 250.0 mg/kg/injection, schedule: Q04DX002 (ip), vehicle: saline with Tween-80): 5 of 6

Compound: CN=C(NC)c1ccc(NC(=O)Nc2cccc(NC(=O)Nc3ccc(C(=NC)NC)cc3)c2)cc1
- T/C (dose: 6.25 mg/kg/injection, schedule: Q01DX005 (ip), vehicle: saline with Tween-80): 137 and 140 % of control
- survivor count (dose: 50.0 mg/kg/injection, schedule: Q01DX005 (ip), vehicle: saline with Tween-80): 0 of 6
- survivor count (dose: 100.0 mg/kg/injection, schedule: Q01DX005 (ip), vehicle: saline with Tween-80): 0 of 6
- survivor count (dose: 200.0 mg/kg/injection, schedule: Q01DX005 (ip), vehicle: saline with Tween-80): 0 of 6

Compound: CC1(O)Cc2c(O)c3c(c(O)c2CC1O)C(=O)C=CC3=O (centres undefined)
- survivor count (dose: 50.0 mg/kg/injection, schedule: Q04DX003 (ip), vehicle: distilled water + Tween-80): 0 of 6
- survivor count (dose: 100.0 mg/kg/injection, schedule: Q04DX003 (ip), vehicle: distilled water + Tween-80): 0 of 6
- survivor count (dose: 200.0 mg/kg/injection, schedule: Q04DX003 (ip), vehicle: distilled water + Tween-80): 0 of 6
